{"sequences": {"note": "Protein sequences, listed by entry. Tags and fused reporters are not part of them. Lines headed by an entry give the natural chain unless they say otherwise; changes in a name come on top. Residues count along the entry.", "UniProt P60568, residues 21-153": "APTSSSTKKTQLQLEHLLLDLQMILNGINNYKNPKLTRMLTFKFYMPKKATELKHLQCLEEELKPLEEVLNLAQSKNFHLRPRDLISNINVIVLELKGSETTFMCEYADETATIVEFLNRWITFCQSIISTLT"}, "source": "patent US20250092109A1", "binders": {"B1": {"name": "VHH1 (VHH)", "VHH": "EVQLVESGGGLVQPGGSLRLSCAASGSIFSINVMGWYRQAPGKQRELVAAISSGGSTNYADSVKGRFTISRDNAKNTVYLQMNSLKPEDTAVYYCMYASSWYEDETDYWGQGTQVTVSS"}, "B2": {"name": "VHH2 (VHH)", "VHH": "B1 VHH with A60P"}, "B3": {"name": "VHH3 (VHH)", "VHH": "B1 VHH with W101F"}, "B4": {"name": "VHH4 (VHH)", "VHH": "B1 VHH with W101Y"}, "B5": {"name": "VHH5 (VHH)", "VHH": "B1 VHH with M96A"}, "B6": {"name": "VHH21 (VHH)", "VHH": "B1 VHH with I31S, M96A, W101F"}, "B7": {"name": "VHH31 (VHH)", "VHH": "B1 VHH with I31S, Q44G, R45L, M96A, W101F"}, "B8": {"name": "VHH40 (VHH)", "VHH": "B1 VHH with W109R, Q114L"}, "B9": {"name": "VHH8 (VHH)", "VHH": "B1 VHH with Q44G, R45L, L47W, A49S"}, "B10": {"name": "VHH10 (VHH)", "VHH": "B1 VHH with Q44G, R45L, M96A, W101F"}, "B11": {"name": "VHH13 (VHH)", "VHH": "B1 VHH with Q44G, R45L, M96A, W101Y"}, "B12": {"name": "VHH15 (VHH)", "VHH": "B1 VHH with N58Y, M96A"}, "B13": {"name": "VHH17 (VHH)", "VHH": "B1 VHH with V33A, M96A"}, "B14": {"name": "VHH18 (VHH)", "VHH": "B1 VHH with N32Y, M96A"}, "B15": {"name": "VHH38 (VHH)", "VHH": "B1 VHH with N32Y, Q44G, M96A, W101Y"}, "B16": {"name": "VHH11 (VHH)", "VHH": "B1 VHH with Q44G, R45L, L47W, A49S, M96A, W101F"}, "B17": {"name": "VHH14 (VHH)", "VHH": "B1 VHH with Q44G, R45L, L47W, A49S, M96A, W101Y"}, "B18": {"name": "VHH19 (VHH)", "VHH": "B1 VHH with S27L, I28T, S30G, I31S, N32Y, V33A, M96A"}, "B19": {"name": "VHH20 (VHH)", "VHH": "B1 VHH with N58Y, A60P, M96A, W101F"}, "B20": {"name": "VHH22 (VHH)", "VHH": "B1 VHH with V33A, M96A, W101F"}, "B21": {"name": "VHH23 (VHH)", "VHH": "B1 VHH with N32Y, M96A, W101F"}, "B22": {"name": "VHH25 (VHH)", "VHH": "B1 VHH with N58Y, A60P, M96A, W101Y"}, "B23": {"name": "VHH27 (VHH)", "VHH": "B1 VHH with V33A, M96A, W101Y"}, "B24": {"name": "VHH28 (VHH)", "VHH": "B1 VHH with N32Y, M96A, W101Y"}, "B25": {"name": "VHH29 (VHH)", "VHH": "B1 VHH with S27L, I28T, S30G, I31S, N32Y, V33A, M96A, W101Y"}, "B26": {"name": "VHH30 (VHH)", "VHH": "B1 VHH with Q44G, N58Y, A60P, M96A, W101F"}, "B27": {"name": "VHH32 (VHH)", "VHH": "B1 VHH with V33A, Q44G, R45L, M96A, W101F"}, "B28": {"name": "VHH33 (VHH)", "VHH": "B1 VHH with N32Y, Q44G, M96A, W101F"}, "B29": {"name": "VHH34 (VHH)", "VHH": "EVQLVESGGGLVQPGGSLRLSCAASGLTFGSYAMGWYRQAPGKGLEWVSAISSGGSTNYADSVKGRFTISRDNAKNTVYLQMNSLKPEDTAVYYCAYASSFYEDETDYWGQGTQVTVSS"}, "B30": {"name": "VHH35 (VHH)", "VHH": "B1 VHH with Q44G, N58Y, A60P, M96A, W101Y"}, "B31": {"name": "VHH37 (VHH)", "VHH": "B1 VHH with V33A, Q44G, R45L, M96A, W101Y"}, "B32": {"name": "VHH39 (VHH)", "VHH": "B29 VHH with F101Y"}, "B33": {"name": "VHH41 (VHH)", "VHH": "B1 VHH with M96A, W101F, W109R, Q114L"}, "B34": {"name": "VHH42 (VHH)", "VHH": "B1 VHH with M96A, W101Y, W109R, Q114L"}}, "key": {"IL-2 [1]": {"target": "IL-2 (UniProt P60568)", "test": "SPR, kinetic Group 1"}, "IL-2 [2]": {"target": "IL-2 (UniProt P60568)", "test": "SPR, kinetic Group 2"}, "IL-2 [3]": {"target": "IL-2 (UniProt P60568)", "test": "SPR, kinetic Group 3"}, "IL-2 [4]": {"target": "IL-2 (UniProt P60568)", "test": "SPR, kinetic Group 4"}}, "note": "Positions count from the first letter of the chain named. These are yes or no findings as the source states them, for the method shown. Some entries that bind do so weakly or less than the wild type.", "data": [{"binder": "B1", "values": [{"measurement": "binding", "setting": "IL-2 [1]", "result": "binds"}]}, {"binder": "B2", "values": [{"measurement": "binding", "setting": "IL-2 [1]", "result": "binds"}]}, {"binder": "B3", "values": [{"measurement": "binding", "setting": "IL-2 [1]", "result": "binds"}]}, {"binder": "B4", "values": [{"measurement": "binding", "setting": "IL-2 [1]", "result": "binds"}]}, {"binder": "B5", "values": [{"measurement": "binding", "setting": "IL-2 [2]", "result": "binds"}]}, {"binder": "B6", "values": [{"measurement": "binding", "setting": "IL-2 [2]", "result": "binds"}]}, {"binder": "B7", "values": [{"measurement": "binding", "setting": "IL-2 [2]", "result": "binds"}]}, {"binder": "B8", "values": [{"measurement": "binding", "setting": "IL-2 [2]", "result": "binds"}]}, {"binder": "B9", "values": [{"measurement": "binding", "setting": "IL-2 [3]", "result": "binds"}]}, {"binder": "B10", "values": [{"measurement": "binding", "setting": "IL-2 [3]", "result": "binds"}]}, {"binder": "B11", "values": [{"measurement": "binding", "setting": "IL-2 [3]", "result": "binds"}]}, {"binder": "B12", "values": [{"measurement": "binding", "setting": "IL-2 [3]", "result": "binds"}]}, {"binder": "B13", "values": [{"measurement": "binding", "setting": "IL-2 [3]", "result": "binds"}]}, {"binder": "B14", "values": [{"measurement": "binding", "setting": "IL-2 [3]", "result": "binds"}]}, {"binder": "B15", "values": [{"measurement": "binding", "setting": "IL-2 [3]", "result": "binds"}]}, {"binder": "B16", "values": [{"measurement": "binding", "setting": "IL-2 [4]", "result": "binds"}]}, {"binder": "B17", "values": [{"measurement": "binding", "setting": "IL-2 [4]", "result": "binds"}]}, {"binder": "B18", "values": [{"measurement": "binding", "setting": "IL-2 [4]", "result": "binds"}]}, {"binder": "B19", "values": [{"measurement": "binding", "setting": "IL-2 [4]", "result": "binds"}]}, {"binder": "B20", "values": [{"measurement": "binding", "setting": "IL-2 [4]", "result": "binds"}]}, {"binder": "B21", "values": [{"measurement": "binding", "setting": "IL-2 [4]", "result": "binds"}]}, {"binder": "B22", "values": [{"measurement": "binding", "setting": "IL-2 [4]", "result": "binds"}]}, {"binder": "B23", "values": [{"measurement": "binding", "setting": "IL-2 [4]", "result": "binds"}]}, {"binder": "B24", "values": [{"measurement": "binding", "setting": "IL-2 [4]", "result": "binds"}]}, {"binder": "B25", "values": [{"measurement": "binding", "setting": "IL-2 [4]", "result": "binds"}]}, {"binder": "B26", "values": [{"measurement": "binding", "setting": "IL-2 [4]", "result": "binds"}]}, {"binder": "B27", "values": [{"measurement": "binding", "setting": "IL-2 [4]", "result": "binds"}]}, {"binder": "B28", "values": [{"measurement": "binding", "setting": "IL-2 [4]", "result": "binds"}]}, {"binder": "B29", "values": [{"measurement": "binding", "setting": "IL-2 [4]", "result": "binds"}]}, {"binder": "B30", "values": [{"measurement": "binding", "setting": "IL-2 [4]", "result": "binds"}]}, {"binder": "B31", "values": [{"measurement": "binding", "setting": "IL-2 [4]", "result": "binds"}]}, {"binder": "B32", "values": [{"measurement": "binding", "setting": "IL-2 [4]", "result": "binds"}]}, {"binder": "B33", "values": [{"measurement": "binding", "setting": "IL-2 [4]", "result": "binds"}]}, {"binder": "B34", "values": [{"measurement": "binding", "setting": "IL-2 [4]", "result": "binds"}]}]}
